From patent US20160137740A1
No constants are given. Whether binding was seen depends on the method and setting. Some results given as binding are weak or reduced against the parent protein; the word gives no strength.

Legend:
[1] = biological target: KO_A126 (printed on D00042 as KI_A126); experiment: flow cytometry, transfected 293F cells, column head printed KI_A126, taken as KO_A126 [FIGURE 32B con't]
[2] = biological target: KO_D137 (printed on the sheet as KI_D137); experiment: flow cytometry, transfected 293F cells, column head printed KI_D137, taken as KO_D137 [FIGURE 32B con't]
[3] = biological target: KO_P121 (printed on the sheet as KI_P121); experiment: flow cytometry, transfected 293F cells, column head printed KI_P121, taken as KO_P121

binding [1]: binds
binding [2]: binds
binding [3]: binds
B1: 9B12 (antibody, mouse IgG1, V domains shown)
VH: EVQLQESGPSLVKPSQTLSLTCSVTGDSFTSGYWNWIRKFPGNRLEYMGYISYNGITYHNPSLKSRISITRDTSKNHYYLQLNSVTTEDTATYFCARYRYDYDGGHAMDYWGQGTLVTVSS
VL: DIQMTQTTSSLSASLGDRVTISCRASQDISNYLNWYQQKPDGTVKLLIYYTSKLHSGVPSRFSGSGSRTDYSLTITDLDQEDIATYFCQQGSALPWTFGQGTKVEIKR
